Assay results: patent US6355669B1, “Retinoic acid agonists as preventive and therapeutic agents for nephritis” (Eisai Co., Ltd., priority 1997, dated 2002)
Some of these results come from one statement about several compounds together.

Experiments:
[1] = tested on: accelerated Masugi nephritis; assay: Rat model with accelerated Masugi nephritis (proteins excreted in urine for 24 hours); type: in vivo, Sprague-Dawley strain rats; details: oral once every day, compared with the control group
Experimental: Sprague-Dawley strain rats were immunized by subcutaneously administering rabbit γ-globulin in a dose of 4 mg/rat along with Freund's complete adjuvant into the bottoms of their both hind legs. On the 5th day after the rats were immunized, 1 ml of anti-rat glomerular basement membrane rabbit serum diluted 6- or 8-fold was administered via tail veins into the animals. On the 8th day, the rats were forced to be orally administered 8 ml sterilized water and then placed in a metabolism cage, and their urine was collected for 24 hours during which the animals were allowed neither food nor water. As the indicator of the model with accelerated Masugi nephritis, the amount of proteins excreted in urine for 24 hours was used.
(§1) The medium was administered into the control group.

[2] = tested on: anti-ds DNA antibody; assay: Mouse model with spontaneous onset of SLE: production of anti-ds DNA antibody; type: in vivo, female (NZB×NZW) F1 mice; details: 0.03 mg/kg oral; after 16 weeks of administration (32-week-old animals)
Experimental: (§2) In this experiment, female (NZB×NZW) F1 mice were used. Administration of each test compound was initiated at the age of 16 weeks, and blood was collected at predetermined intervals from the orbital venous plexus of the animals under anesthesia with ether and examined for anti-DNA (single-stranded chain: ss, double stranded chain: ds) antibody titer in serum. Further, urine was collected and measured for urine protein.
as §1

[3] = tested on: anti-ss DNA antibody; assay: Mouse model with spontaneous onset of SLE: production of anti-ss DNA antibody; type: in vivo, female (NZB×NZW) F1 mice; details: 0.03 mg/kg oral; after 16 weeks of administration (32-week-old animals)
Experimental: as §2, §1

Structure (SMILES)	Degree of Inhibition of Albuminuria (%) ([1]; dose 0.3 mg/kg, 0.3 mg/kg)	inhibition of production of anti-ds DNA antibody [2]	inhibition of production of anti-ss DNA antibody [3]	Degree of Inhibition of Albuminuria (%) ([1]; dose 1.0 mg/kg, 1 mg/kg)
CCc1ccc(C)c2cc(-c3ccc(-c4ccc(C(=O)O)cc4)[nH]3)oc12 [Compound D, 4-{2-[5-(7-ethyl-4-methylbenzofuran-2-yl)pyrrolyl]}benzoic acid]	60 to 90%	≥ 80%	≥ 70%	–
COCc1cc2c(cc1-c1ccc(-c3ccc(C(=O)O)cc3)[nH]1)C(C)(C)CCC2(C)C [Compound H, 4-{2-[5-(3-methoxymethyl-5,6,7,8-tetrahydro-5,5,8,8-tetramethylnaphthalene-2-yl)pyrrolyl}}benzoic acid]	60 to 90%	–	–	–
Cc1ccc(C)c2oc(-c3ccc(-c4ccc(C(=O)O)cc4)[nH]3)cc12 [Compound A, 4-{2-[5-(4,7-dimethylbenzofuran-2-yl)pyrrolyl]}benzoic acid]	60 to 90%	≥ 80%	≥ 70%	–
C[Si](C)(C)c1cc(C(=O)Nc2ccc(C(=O)O)cc2)cc([Si](C)(C)C)c1 [Compound I, 4-{[(3,5-bistrimethylsilylphenyl)carbonyl]amino}benzoic acid]	–	–	–	70 to 80%
CC1(C)CCCc2ncc(-c3ccc(-c4ccc(C(=O)O)cc4)[nH]3)nc21 [Compound E, 4-{2-{5-[2-(8,8-dimethyl-5,6,7,8-tetrahydroquinoxalynyl)]pyrrolyl}}benzoic acid]	–	–	–	70 to 80%
O=C(O)c1ccc(-c2ccc(-c3cc4c(C(F)(F)F)ccc(F)c4o3)[nH]2)cc1 [Compound B, 4-{2-[5-(7-fluoro-4-trifluoromethylbenzofuran-2-yl)pyrrolyl]}benzoic acid]	60 to 90%	≥ 80%	≥ 70%	–
